The assay can be described thus: qHTS Assay for Modulators of Lamin A Splicing. The following applies: HeLa LMNA splicing GFP/RFP minigene ratio, 48 h. Put shortly:
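S3 HeLa stable clones carrying a lamin A-EGFP splicing minigene plus DsRed2 were seeded at 600 cells/well in Opti-MEM with 2% FBS, pin-dosed and incubated 48 h at 37°C. Acumen cytometry (488 nm) gave the GFP/RFP total-intensity ratio.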
In general terms: Quantitative high-throughput screening tests each substance at several concentrations.

[1] abbreviates: measured here: GFP splicing reporter channel.
[2] abbreviates: measured here: RFP viability control channel.

This is one part of the list. The main result of the screen is listed elsewhere. These columns were measured beside it and carry no call. Most of these compounds were active or inconclusive in the main read-out, so they are no random draw. Words in brackets tell the shape of the fitted curve; partial curves, single points and poor fits give uncertain potencies.

What is called AC50 is the midpoint of the concentration-response curve, whichever way the signal moves.

In the case of `C=CCn1cccc(/C=C/C(=O)c2ccc(C(C)(C)C)cc2)c1=S`, the AC50 under setting [1] was 35.5 µM [falling, single point] and the AC50 under setting [2] is 35.5 µM [falling, single point]. Take `O=C(NC1=NCCS1)c1ccccc1OCc1ccc(F)cc1`: the concentration at half-maximal activity (AC50) reads like this: under setting [1], 35.5 µM [falling, single point]; under setting [2], 35.5 µM [falling, single point]. Regarding `O=C(/C=C/c1ccc(Cl)cc1)Nc1ccc(N2CCOCC2)cc1`, the half-maximal activity concentration (AC50) is, setting by setting: under setting [1], 0.00891 µM [falling, full curve, poor fit]; under setting [2], 0.00501 µM [falling, full curve, poor fit]. Regarding `O=C(COCc1cc(-c2cccs2)on1)N1CCN(c2ccccc2)CC1`, the AC50 reads like this: under setting [1], 0.0447 µM [falling, full curve]; under setting [2], 0.0282 µM [falling, full curve]. For `CC(C)OC(=O)CSc1nc(Cc2ccccc2)nc2ccccc12`, the AC50 under setting [1] was 10 µM [falling, single point] and the AC50 under setting [2] is 10 µM [falling, single point]. As for `Fc1ccc(NCc2nnc3n2CCCCC3)cc1Cl`, the half-maximal activity concentration (AC50) under setting [2] is 0.355 µM [falling, partial curve, poor fit]. For `COc1ccc(-c2cc(C(=O)NN)[nH]n2)cc1`, the AC50 under setting [2] is 3.98 µM [rising, partial curve]. Turning to `CCCCCCCCNC(=O)c1ccc(C)cc1`, the half-maximal activity concentration (AC50) under setting [1] is 3.55 µM [falling, partial curve, poor fit].

As to `Cc1cc(C(=O)N/N=C/c2cccc([N+](=O)[O-])c2)c(C)n1-c1ccccc1`, the concentration at half-maximal activity (AC50) runs as follows: under setting [1], 0.02 µM [rising, full curve, poor fit]; under setting [2], 0.0282 µM [rising, full curve, poor fit].

As for `COc1ccc2c(c1)c(=O)oc1cc(OCC(=O)N3CCCC(C)C3)ccc12` (stereo not drawn), under setting [2], the AC50 was 12.6 µM [rising, partial curve]. In the case of `Cc1ccc(NC(=S)Nc2ccc(Cl)c(Cl)c2)c(OC(F)F)c1`, the concentration at half-maximal activity (AC50) under setting [2] is 20 µM [rising, single point]. On the same count and under the same terms, under `CC(C)c1ccc(NC(=O)CCCN2C(=S)NC(C)(C)CC2C)cc1` (stereo not drawn) stands 0.158 µM [rising, full curve, poor fit].

For `CSc1ccc(/C=C/C(=O)NC(=O)c2ccccc2O)cc1`, the concentration at half-maximal activity (AC50) under setting [2] is 35.5 µM [rising, single point].

With `CC1CC(C)CN(CCCNC(=O)Cn2ncn3cccc3c2=O)C1` (stereo not drawn), the half-maximal activity concentration (AC50) under setting [2] was 0.0158 µM [falling, full curve, poor fit].

`C/C(Cl)=C\Cn1c(O)c(N=NC(N)=S)c2ccccc21`: the AC50 under setting [1] was 7.94 µM [falling, partial curve, poor fit] and the AC50 under setting [2] is 31.6 µM [falling, partial curve]. For `COc1cccc(CNC(=O)C2=C(C)C(=O)OC23CCN(C(C)=O)CC3)c1OC`, under setting [2], the AC50 is 35.5 µM [falling, single point]. Consider `Cn1cc(CN2CCN(Cc3ccccc3)C(CCO)C2)c(-c2ccccc2)n1` (stereo not drawn), for which the AC50 reads like this: under setting [1], 3.98 µM [rising, full curve, poor fit]; under setting [2], 4.47 µM [rising, partial curve]. For `Cc1c(C(=O)NCc2cccnc2)oc2ccc(S(=O)(=O)N3CCCCC3)cc12`, under setting [2], the concentration at half-maximal activity (AC50) was 12.6 µM [rising, partial curve]. With `CC(=O)c1ccc(NC(=O)CN2C(=O)CN(C)C(=O)c3ccccc32)cc1`, the concentration at half-maximal activity (AC50) under setting [1] was 20 µM [falling, partial curve, poor fit] and the half-maximal activity concentration (AC50) under setting [2] was 2.51 µM [falling, partial curve, poor fit]. Take `COc1cccc(N/C(SCc2ccccc2F)=C(/C#N)C(=O)NCc2cccs2)c1`: under setting [1], the AC50 is 14.1 µM [rising, single point]. As for `CCNS(=O)(=O)c1ccc(NC(=O)CC(C)c2ccccc2)cc1` (stereo not drawn), the AC50 under setting [1] was 0.0891 µM [falling, full curve, poor fit] and the AC50 under setting [2] was 0.0794 µM [falling, full curve, poor fit]. Take `Cc1nn(C)c(C(=O)Nc2ccc(Cl)c([N+](=O)[O-])c2)c1Cl`: the AC50 under setting [1] is 20 µM [rising, single point].

In the case of `CC1(C)C2CCC1(C)C(OCC[N+](C)(C)CC(=O)OC1CCCCC1)C2` (stereo not drawn), the concentration at half-maximal activity (AC50) under setting [2] is 35.5 µM [rising, partial curve, poor fit]. Still for that read-out and setting: with `Cc1ccc(-n2c(SCC(=O)NCc3ccco3)nc3c(sc4ccccc43)c2=O)cc1` the figure was 0.02 µM [falling, full curve, poor fit]; with `COc1ccccc1N/C=C(\C#N)c1nc2ccccc2[nH]1`, 0.0794 µM [falling, full curve]; with `CCc1ccc2nc(N(CCN(CC)CC)C(=O)c3cccs3)sc2c1`, 0.0316 µM [falling, full curve]. Take `N#Cc1ccsc1NC(=O)CN(Cc1ccccc1)Cc1ccccc1`: the AC50 under setting [1] is 35.5 µM [rising, single point] and the concentration at half-maximal activity (AC50) under setting [2] was 35.5 µM [rising, single point]. Consider `CCOc1ccccc1CNC(=O)CCc1c(C)nn(-c2ccc(N3CCCC3)nn2)c1C`, for which the AC50 runs as follows: under setting [1], 0.00316 µM [falling, full curve, poor fit]; under setting [2], 0.00316 µM [falling, full curve, poor fit]. As for `COc1ccccc1CNC(=O)Cn1c(=O)nc(-c2ccccc2F)c2cc(Cl)ccc21`, the AC50 under setting [1] is 14.1 µM [falling, single point].

As for `CCSC1(SCC)N=C(N)C2(C#N)C(c3ccccc3)NC(C)=CC12C#N` (stereo not drawn), under setting [1], the half-maximal activity concentration (AC50) is 0.0562 µM [falling, full curve, poor fit]. With `Cc1ccc(Cn2cccc(-c3nc4ccccc4s3)c2=O)cc1`, under setting [2], the AC50 is 7.08 µM [rising, full curve, poor fit]. Regarding `O=C(CCCCl)NC(=S)Nc1cc(C(F)(F)F)ccc1N1CCOCC1`, the AC50 is 20 µM [rising, single point] under setting [1] and 35.5 µM [rising, single point] under setting [2]. Regarding `CSc1nc2nccc(/C=C\c3ccccc3)n2n1`, the AC50 was 31.6 µM [falling, single point] under setting [1] and 35.5 µM [falling, single point] under setting [2]. Take `Cc1ccc(C(C)C)c(OCc2ccc(C(=O)N/N=C/c3ccc(O)cc3O)cc2)c1`: the AC50 under setting [1] is 14.1 µM [rising, single point] and the half-maximal activity concentration (AC50) under setting [2] was 12.6 µM [rising, partial curve].

With `Nc1nc2c(ncn2COC(CO)CO)c(=O)[nH]1`, the AC50 is 10 µM [falling, partial curve, poor fit] under setting [1] and 3.16 µM [falling, single point] under setting [2].

Turning to `Cn1nc(CC(=O)NCc2ccc(C(F)(F)F)cc2)c2ccccc2c1=O`, the AC50 under setting [2] was 7.94 µM [rising, partial curve]. For `CC(=O)N1CCc2cc(S(=O)(=O)NCCC(=O)N3CCc4ccccc4C3)ccc21`, the half-maximal activity concentration (AC50) by setting is: under setting [1], 17.8 µM [rising, single point]; under setting [2], 22.4 µM [rising, single point].

For `O=C(CCCNS(=O)(=O)c1ccc(Br)cc1)N1CC[C@@]2(O)CCCC[C@H]2C1`, the concentration at half-maximal activity (AC50) under setting [2] was 4.47 µM [rising, partial curve, poor fit]. On to `CC12C(=O)OC(=O)C1(C)C1CCC2O1` (stereo not drawn), for which the AC50 is, setting by setting: under setting [1], 2.51 µM [falling, full curve]; under setting [2], 2.24 µM [falling, full curve]. `CCOc1ccc(N2C(=O)CNC2=S)cc1`: under setting [1], the AC50 is 10 µM [rising, partial curve, poor fit]. As to `Cc1c(C(=O)Nc2cccc(C(F)(F)F)c2)sc2nc[nH]c(=O)c12`, under setting [1], the concentration at half-maximal activity (AC50) was 0.355 µM [falling, full curve, poor fit]. Consider `Cc1cccc(N2CCN(C(=O)CSc3ccsc3[N+](=O)[O-])CC2C)c1` (stereo not drawn), for which the half-maximal activity concentration (AC50) under setting [1] is 35.5 µM [rising, single point] and the AC50 under setting [2] was 25.1 µM [rising, single point]. As for `O=C(COC(=O)/C=C/c1ccccc1)NCc1ccc(Cl)cc1`, the AC50 under setting [2] was 17.8 µM [falling, single point]. Take `C[C@H](C(=O)O)c1cccc(Oc2ccccc2)c1`: under setting [1], the AC50 was 0.0562 µM [falling, full curve, poor fit]. With `CC(=O)N/N=C/c1cc(C(C)(C)C)cc(/C=N/NC(C)=O)c1O`, the half-maximal activity concentration (AC50) reads like this: under setting [1], 0.282 µM [falling, partial curve]; under setting [2], 3.16 µM [falling, partial curve]. Regarding `CC(=O)c1cn(CC(=O)Nc2cccc(C)c2C)c2ccccc12`, the AC50 under setting [1] is 1.41 µM [rising, single point]. In the case of `Cc1ccccc1C(=O)N1CCN(c2ccc(NC(=O)c3ccco3)cc2Cl)CC1`, the half-maximal activity concentration (AC50) under setting [2] is 10 µM [rising, partial curve]. On to `CCOC(=O)C1=C(O)/C(=C\c2sccc2C)N=C1C`, for which the AC50 under setting [1] is 2 µM [falling, partial curve, poor fit]. Turning to `CC(C)C(NC(=O)OCc1ccccc1)C(=O)OCC(=O)NC1CC1` (stereo not drawn), the AC50 runs as follows: under setting [1], 0.0398 µM [falling, full curve, poor fit]; under setting [2], 0.0316 µM [falling, full curve, poor fit].

As to `Cc1cccc2cc(/C=N/NC(=O)CN3CCOCC3)c(Cl)nc12`, the half-maximal activity concentration (AC50) under setting [2] is 20 µM [rising, single point]. In the case of `Cc1ccc(-n2c(C)cc(C(=O)OCC(=O)N(CC(C)C)C3CCS(=O)(=O)C3)c2C)cc1` (stereo not drawn), the half-maximal activity concentration (AC50) was 3.55 µM [rising, full curve] under setting [1] and 3.55 µM [rising, single point] under setting [2]. As for `COCCn1c(=O)cnc2cnc(Nc3cccc(OC)c3)nc21`, the AC50 is 12.6 µM [falling, partial curve] under setting [1] and 20 µM [falling, partial curve] under setting [2]. Take `Cc1nn(-c2cccc(C(F)(F)F)c2)c(Cl)c1/C=N/n1cnnc1`: the AC50 by setting is: under setting [1], 7.08 µM [rising, partial curve, poor fit]; under setting [2], 12.6 µM [rising, partial curve, poor fit].

As for `COC(=O)[C@@H](NC(=O)N1CCc2nc(-c3ccc(OC)cc3C)c3c(c2C1)CO[C@@H](c1ccccc1)C3)C(C)C`, under setting [2], the AC50 is 0.398 µM [rising, partial curve].

Values taken from PubChem BioAssay AID1487 (National Center for Advancing Translational Sciences (NCATS), 2009).
